In one assay the test system is IL-6-GFP PC-9GR. As to the kind of experiment: IL-6-GFP fluorescence relative to DMSO control (fraction of control); higher = more IL-6-GFP expression. The note with it: compound concentration: 10 uM; treatment time: 48 h. On the procedure: (§1)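 IL-6-GFP-overexpressing PC-9 and PC-9GR EGFR-mutant lung cancer cells (3000 cells/well, 96-well) were treated for 48 h with each compound of the Selleck L2000 library at 10 uM. IL-6-GFP fluorescence was read on a high-content screening system, and viability by CCK-8 absorbance on a parallel plate set. Each value was normalised as compound well / DMSO control well; two independent replicates.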

A further assay deals with IL-6-GFP PC-9. The description is as above. The note with it: compound concentration: 10 uM; treatment time: 48 h. On the procedure: as §1

SMILES strings stand for the structures. ± gives the standard deviation of the averaged measurements. The list shows a part of the results. Most values lie within the scatter of the assay; repeated measurements hardly agree.

As to `CC(=O)OC1CCC2(C)C(=CCC3C2CCC2(C)C(c4cccnc4)=CCC32)C1` (stereo not drawn) [Abiraterone Acetate], the figures for the IL-6-GFP fluorescence with IL-6-GFP PC-9GR and in the assay on IL-6-GFP PC-9 were 0.706 ± 0.17 and 0.821 ± 0.3, respectively.

Regarding `CC12CCC(CC1)C(C)(C)O2` [Eucalyptol], the IL-6-GFP fluorescence amounted to 0.591 ± 0.57 with IL-6-GFP PC-9GR and 0.88 ± 0.029 in the assay with IL-6-GFP PC-9.

For `N#CC1(c2ccc(NC(=O)c3cccnc3NCc3ccncc3)cc2)CCCC1` [Apatinib], the IL-6-GFP fluorescence came out at 1.06 ± 0.45 in the assay on IL-6-GFP PC-9GR and 0.905 ± 0.033 in the assay on IL-6-GFP PC-9.

Take `Cc1c(Cl)cccc1Nc1ncccc1C(=O)O` [Clonixin]: the IL-6-GFP fluorescence was 0.69 ± 0.012 in the assay with IL-6-GFP PC-9GR and 0.789 ± 0.072 in the assay with IL-6-GFP PC-9.

Take `Cc1ccc(Nc2nccc(N(C)c3ccc4c(C)n(C)nc4c3)n2)cc1S(N)(=O)=O` [Pazopanib]: the IL-6-GFP fluorescence in the assay on IL-6-GFP PC-9GR came to 0.974 ± 0.033; in the assay on IL-6-GFP PC-9 it was 0.957 ± 0.038.

As for `CCOC(=O)N1CCC(=C2c3ccc(Cl)cc3CCc3cccnc32)CC1` [Loratadine], the IL-6-GFP fluorescence in the assay with IL-6-GFP PC-9GR worked out at 0.963 ± 0.014; in the assay on IL-6-GFP PC-9 it was 1.04 ± 0.22.

Take `NC(=O)NO` [Hydroxyurea]: the IL-6-GFP fluorescence in the assay on IL-6-GFP PC-9GR turned out to be 0.784 ± 0.15; with IL-6-GFP PC-9, 0.959 ± 0.26.

Regarding `CC(CCC(=O)[O-])C1CCC2C3C(O)CC4CC(O)CCC4(C)C3CC(O)C12C.[Na+]` (stereo not drawn) [Sodium cholate], the IL-6-GFP fluorescence in the assay on IL-6-GFP PC-9GR was 1.2 ± 0.22; with IL-6-GFP PC-9 it was 0.812 ± 0.067.

In the case of `Cc1ccc(C(C)C)cc1` [p-Cymene], the IL-6-GFP fluorescence in the assay on IL-6-GFP PC-9GR came to 0.821 ± 0.16; in the assay on IL-6-GFP PC-9 it was 0.821 ± 0.047.

For `Cl.N=C1CCCN1Cc1[nH]c(=O)[nH]c(=O)c1Cl.O=c1[nH]c(=O)n(C2CC(O)C(CO)O2)cc1C(F)(F)F.O=c1[nH]c(=O)n(C2CC(O)C(CO)O2)cc1C(F)(F)F` (stereo not drawn), the IL-6-GFP fluorescence turned out to be 1.1 ± 0.17 in the assay on IL-6-GFP PC-9GR and 1.09 ± 0.027 in the assay with IL-6-GFP PC-9.

Consider `CNC(=NC#N)NCCSCc1nc[nH]c1C` [Cimetidine], for which the IL-6-GFP fluorescence turned out to be 0.611 ± 0.35 in the assay with IL-6-GFP PC-9GR and 0.863 ± 0.078 in the assay on IL-6-GFP PC-9.

With `O=c1cc[nH]c(=O)[nH]1` [Uracil], the IL-6-GFP fluorescence with IL-6-GFP PC-9GR amounted to 0.66 ± 0.21; with IL-6-GFP PC-9, 0.966 ± 0.073.

`C[Se]CC[C@H](N)C(=O)O` [L-SelenoMethionine]: the IL-6-GFP fluorescence was 1.62 ± 1.1 with IL-6-GFP PC-9GR and 2.13 ± 0.29 in the assay with IL-6-GFP PC-9.

In the case of `Cl.NC1=NCC2c3ccccc3Cc3ccccc3N12` (stereo not drawn) [Epinastine HCl], the IL-6-GFP fluorescence in the assay on IL-6-GFP PC-9GR was found to be 0.579 ± 0.23; in the assay with IL-6-GFP PC-9, 0.948 ± 0.048.

As to `CC(=O)C1CCC2C3CC(C)C4=CC(=O)CCC4(C)C3C(O)CC12C` (stereo not drawn) [Medrysone], the values for the IL-6-GFP fluorescence in the assay with IL-6-GFP PC-9GR and in the assay on IL-6-GFP PC-9 were 0.75 ± 0.23 and 1.03 ± 0.22, respectively.

Take `Nc1nc(Cl)nc2c1ncn2C1OC(CO)C(O)C1F` (stereo not drawn) [Clofarabine]: the IL-6-GFP fluorescence in the assay on IL-6-GFP PC-9GR is 1.052 ± 0.0093; in the assay with IL-6-GFP PC-9, 1.01 ± 0.07.

For the compound `Nc1cccc2c1C(=O)N(C1CCC(=O)NC1=O)C2=O` (stereo not drawn) [Pomalidomide], the figures for the IL-6-GFP fluorescence with IL-6-GFP PC-9GR and in the assay with IL-6-GFP PC-9 were 1.575 ± 0.0085 and 1.89 ± 0.45, respectively.

Consider `CC(C)(C#N)c1cc(Cn2cncn2)cc(C(C)(C)C#N)c1` [Anastrozole], for which the IL-6-GFP fluorescence came out at 0.925 ± 0.02 with IL-6-GFP PC-9GR and 0.888 ± 0.097 in the assay with IL-6-GFP PC-9.

Take `CN1C(=O)/C(=C2/C(=O)Nc3ccccc32)c2ccccc21` [Meisoindigo]: the IL-6-GFP fluorescence amounted to 0.742 ± 0.17 in the assay on IL-6-GFP PC-9GR and 0.687 ± 0.15 with IL-6-GFP PC-9.

As for `CC(C(=O)O)c1ccc2c(c1)Cc1cccnc1O2` (stereo not drawn) [Pranoprofen], the IL-6-GFP fluorescence with IL-6-GFP PC-9GR is 0.79 ± 0.21; in the assay on IL-6-GFP PC-9, 0.8881 ± 0.0073.

`CN(C)N=Nc1[nH]cnc1C(N)=O` [Dacarbazine]: the IL-6-GFP fluorescence with IL-6-GFP PC-9GR was 0.976 ± 0.33; in the assay on IL-6-GFP PC-9 it was 0.951 ± 0.076.

Turning to `CCOc1ccccc1OCCNC(C)Cc1ccc(OC)c(S(N)(=O)=O)c1` (stereo not drawn) [Tamsulosin], the IL-6-GFP fluorescence in the assay on IL-6-GFP PC-9GR was found to be 0.831 ± 0.2; in the assay with IL-6-GFP PC-9 it was 0.909 ± 0.15.

As to `Cl.Cl.Cl.Cl.Cl.Cl.Cl.Cl.c1cc(CN2CCCNCCNCCCNCC2)ccc1CN1CCCNCCNCCCNCC1` [Plerixafor 8HCl (AMD3100 8HCl)], the results for the IL-6-GFP fluorescence in the assay on IL-6-GFP PC-9GR and in the assay on IL-6-GFP PC-9 were 0.814 ± 0.19 and 0.824 ± 0.12, respectively.

As to `NC(=O)Cc1cccc(C(=O)c2ccccc2)c1N` [Nepafenac], the IL-6-GFP fluorescence was 0.8176 ± 0.0067 with IL-6-GFP PC-9GR and 0.737 ± 0.023 in the assay on IL-6-GFP PC-9.

`COC(=O)C(Cc1ccccc1)NC(=O)C(N)CC(=O)O` (stereo not drawn) [Aspartame]: the figures for the IL-6-GFP fluorescence with IL-6-GFP PC-9GR and in the assay on IL-6-GFP PC-9 were 0.586 ± 0.28 and 0.8025 ± 0.0049, respectively.

In the case of `O.S=c1nc[nH]c2nc[nH]c12` [6-Mercaptopurine (6-MP) Monohydrate], the IL-6-GFP fluorescence turned out to be 0.592 ± 0.24 in the assay with IL-6-GFP PC-9GR and 0.884 ± 0.0093 in the assay on IL-6-GFP PC-9.

In the case of `CNC1CCC(c2ccc(Cl)c(Cl)c2)c2ccccc21.Cl` (stereo not drawn) [Sertraline HCl], the figures for the IL-6-GFP fluorescence in the assay on IL-6-GFP PC-9GR and in the assay on IL-6-GFP PC-9 were 0.766 ± 0.26 and 1.05 ± 0.11, respectively.

Take `CCC(C)C(=O)OC1CC(O)C=C2C=CC(C)C(CCC(O)CC(O)CC(=O)[O-])C21.[Na+]` (stereo not drawn) [Pravastatin sodium]: the IL-6-GFP fluorescence with IL-6-GFP PC-9GR worked out at 0.927 ± 0.013; in the assay on IL-6-GFP PC-9, 0.779 ± 0.18.

For the compound `N#CC1CC2CC2N1C(=O)C(N)C12CC3CC(CC(O)(C3)C1)C2.O` (stereo not drawn) [Saxagliptin hydrate], the IL-6-GFP fluorescence is 0.572 ± 0.5 in the assay with IL-6-GFP PC-9GR and 0.901 ± 0.017 in the assay on IL-6-GFP PC-9.

Turning to `Cc1ccc(Cl)c(Nc2ccccc2C(=O)[O][Na])c1Cl` [Meclofenamate Sodium], the figures for the IL-6-GFP fluorescence with IL-6-GFP PC-9GR and in the assay on IL-6-GFP PC-9 were 0.598 ± 0.074 and 0.913 ± 0.092, respectively.

Take `O=S(=O)([O-])CCS.[Na+]` [Mesna]: the values for the IL-6-GFP fluorescence with IL-6-GFP PC-9GR and in the assay on IL-6-GFP PC-9 were 0.668 ± 0.2 and 0.854 ± 0.17, respectively.

For the compound `CN1C2=CC(=O)/C(=N\NC(N)=O)C=C2CC1S(=O)(=O)[O-].[Na+]` (stereo not drawn) [Carbazochrome sodium sulfonate (AC-17)], the IL-6-GFP fluorescence amounted to 0.569 ± 0.55 in the assay with IL-6-GFP PC-9GR and 0.8378 ± 0.0024 in the assay with IL-6-GFP PC-9.

With `COc1nc(N)nc2c1ncn2C1OC(CO)C(O)C1O` (stereo not drawn) [Nelarabine], the IL-6-GFP fluorescence with IL-6-GFP PC-9GR is 0.989 ± 0.062; with IL-6-GFP PC-9, 0.922 ± 0.026.

`COc1ccc(-c2ccc3cc(C(=O)O)ccc3c2)cc1C12CC3CC(CC(C3)C1)C2` [Adapalene]: the values for the IL-6-GFP fluorescence in the assay with IL-6-GFP PC-9GR and in the assay on IL-6-GFP PC-9 were 0.998 ± 0.1 and 0.795 ± 0.32, respectively.

These data come from the supplement of paper PMC8866396.
